In PubChem BioAssay AID493014 (National Center for Advancing Translational Sciences (NCATS), 2011):
In all, about 340,000 compounds went through this assay and about 170 (0.05%) were called active. Inconclusive results, whose numbers are uncertain, are shown with a selection of clear calls. Calls come from the whole dose curve; as a rule, active = well fitted inhibition curve with a large enough effect in the signal ratio, with a control signal flat (not every such curve was filed as active); inconclusive = small, poorly fitted or top-dose-only effect, or effect the other way, or a change in a side signal; inactive = flat fitted curve, though single readings scatter; the % refers to the signal ratio. Where the call is inconclusive, the potency comes from a doubtful curve fit.
Potency is the fitted concentration of half-maximal effect.

Test: qHTS Assay to Find Inhibitors of Chronic Active B-Cell Receptor Signaling;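 for activity change, negative = inhibition: plate controls were basal doxycycline-induced cells for no effect and cells given 10 µM MG132 for full effect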
Conditions: ABC-DLBCL IkBa-CBG/CBR reporter, luminescence ratio (green luciferase fused to IkBa over red control in TMD8 lymphoma cells), 4 h; activity change, negative = inhibition: at 46.1 µM (top of the series) unless noted
Method in brief: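 Compounds up to 46 uM were incubated four hours with TMD8 cells whose green CBG68 luciferase is fused to IkappaBalpha; red CBR luminescence normalised the signal, and concentration-effect curves were fitted to fusion, red and ratio data.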
With `O=C(N/N=C/c1ccc(O)cc1O)c1ccncc1` the “activity change, negative = inhibition” value was inactive: -6.64%. With `CC(CN1CCOCC1)OC(=O)c1ccc(Br)cc1` (stereo not drawn) the Potency was inconclusive: 14.1 µM [falling, single point]. For `Nc1ccc(C(=O)N2CCN(S(=O)(=O)c3ccc(Cl)s3)CC2)cc1[N+](=O)[O-]`, the activity change, negative = inhibition was inconclusive: -7.53%. In the case of `Cc1ccc2nc(NC(=O)CN(C)S(=O)(=O)c3ccc(Br)s3)sc2c1`, the “activity change, negative = inhibition” value is reported as inactive: 1.74%. With `O=C(/C=C/c1cccnc1)c1ccc(NC(=O)c2cccc(Br)c2)cc1` the “activity change, negative = inhibition” value was inactive: 2.54%. With `Cc1ccccc1N(C(=O)Cn1nnc(-c2ccc(F)cc2)n1)C(C(=O)NC(C)(C)C)c1ccncc1` (stereo not drawn) the “activity change, negative = inhibition” value was inactive: 5.32%. For `Cc1nnc2c3cnn(-c4ccc(Cl)cc4)c3ncn12`, the activity change, negative = inhibition was inconclusive: 6.23%. For `Cc1ccc(-c2[nH]c(-c3ccc(Cl)cc3)nc2SCC(=O)NCC2CCCO2)cc1` (stereo not drawn), the activity change, negative = inhibition was inconclusive: 0.505%. For `O=C(O)c1ccccc1C(=O)OCc1c(-c2ccccc2)ncc2ccccc12`, the Potency was inconclusive: 18.4 µM [falling, partial curve]. With `COc1ccc(Cl)cc1NC(=S)NCCO` the “activity change, negative = inhibition” value was inactive: -1.3%. For `Cc1ccc(NC(=O)CCn2cccc2)cc1C`, the Potency was inconclusive: 2.06 µM [rising, partial curve]. With `O=c1[nH]c(C2CCN(S(=O)(=O)c3ccc(S(=O)(=O)NC4CC4)cc3)CC2)nc2c1nnn2Cc1ccccc1` the activity change, negative = inhibition was inconclusive: 5.92%. For `CCC(C)c1ccc(OCCCCN2CCOCC2)cc1` (stereo not drawn), the Potency was inconclusive: 1.84 µM [falling, partial curve, poor fit]. With `Cc1ccc(CNC(=O)C2c3ccccc3C(=O)N3CCc4ccccc4C23)o1` (stereo not drawn) the “activity change, negative = inhibition” value was inactive: -4.45%. For `CN(C)Cc1c(O)c(Cl)cc2c3c(c(=O)oc12)CCCC3`, the Potency was inconclusive: 16.4 µM [rising, partial curve, poor fit]. For `CCn1c(SCC(=O)Nc2ccc(Br)cc2)nc2sc3c(c2c1=O)CCN(C)C3`, the Potency was inconclusive: 35.5 µM [falling, single point]. For `CNC(=S)NNC(=O)c1sccc1OCc1ccc(Cl)cc1Cl`, the “activity change, negative = inhibition” value was inactive: -0.152%. With `N#Cc1c(-c2ccc(F)cc2)cc(-c2ccccc2)nc1SCC(=O)NCC(=O)O` the “activity change, negative = inhibition” value was inactive: 9.89%. For `COc1ccc(/C=N/n2c(-c3ccc(C)cc3)n[nH]c2=S)cc1OC`, the “activity change, negative = inhibition” value was inactive: -0.143%. With `O=C(COc1cccc(NC(=O)c2cccc([N+](=O)[O-])c2)c1)c1ccc(F)cc1` the “activity change, negative = inhibition” value was inactive: -16.1%. For `CN(C(=S)NC(=O)c1ccccc1)c1c(N)n(Cc2ccccc2)c(=O)[nH]c1=O`, the activity change, negative = inhibition was inconclusive: 0.38%. For `Cc1cccc(NC(=O)C2(c3ccccc3)CC2(Cl)Cl)c1` (stereo not drawn), the activity change, negative = inhibition was inconclusive: 21.8%. With `CN(C)S(=O)(=O)c1ccc(Cl)c(C(=O)NNC(=O)c2ccc3c(c2)OCO3)c1` the activity change, negative = inhibition was inconclusive: -18.6%. In the case of `CCCOc1ccc(N2C(=O)CC(N3CCOCC3)C2=O)cc1` (stereo not drawn), the “activity change, negative = inhibition” value is reported as inactive: 15.8%. With `Cn1c(C(=O)N2CCCC(C(=O)NCc3ccc4c(c3)OCO4)C2)cc2sccc21` (stereo not drawn) the activity change, negative = inhibition was inconclusive: -19.3%. For `O=C(CCSCc1ccc(Cl)cc1)NCCC1=CCCCC1`, the “activity change, negative = inhibition” value was inactive: 3.07%. With `CC(C)C(=O)Nc1ccc(NC(=O)c2ccc(COc3ccccc3)cc2)cc1` the activity change, negative = inhibition was inconclusive: -0.371%. With `O=C(Cc1ccccc1Cl)Nc1nc2ccccc2[nH]1` the activity change, negative = inhibition was inconclusive: -9.46%. In the case of `COc1cc(C2NC(=O)NC(C)=C2C(=O)OCC2CCCCC2)cc(Cl)c1O` (stereo not drawn), the Potency is reported as inconclusive: 5.01 µM [falling, partial curve, poor fit]. With `Cc1sc(NC(=O)c2ccc(Cl)s2)c(C(N)=O)c1C` the activity change, negative = inhibition was inconclusive: -2.64%. In the case of `Cc1nn(-c2ccccc2)cc1/C=N/NC(N)=S`, the activity change, negative = inhibition is reported as inconclusive: -0.673%. For `O=C1CC(N2CCOCC2)C(=O)N1c1ccc(Cl)cc1` (stereo not drawn), the activity change, negative = inhibition was inconclusive: -0.441%. In the case of `O=C(Nc1ccc(F)c(F)c1)c1ccccc1`, the Potency is reported as inconclusive: 25.9 µM [falling, single point]. For `O=Cc1c(Cl)nc2ccccn2c1=O`, the Potency was inconclusive: 28.2 µM [falling, single point]. With `CC1=NN(C(=O)Cc2ccc([N+](=O)[O-])cc2)C(O)(C(F)(F)C(F)(F)F)C1` (stereo not drawn) the activity change, negative = inhibition was inconclusive: -29.3%. For `COc1ccc(NC(=O)CCCc2ccccc2)c(OC)c1`, the activity change, negative = inhibition was inconclusive: 9.47%. In the case of `COc1ccc(N(CC(O)CN2C(=O)NC(C)(C)C2=O)S(=O)(=O)c2ccc(C)cc2)cc1` (stereo not drawn), the activity change, negative = inhibition is reported as inconclusive: 0.405%. In the case of `CC1=CC(C)(C)NC(=S)N1c1cccc(C)c1`, the “activity change, negative = inhibition” value is reported as inactive: -3.78%. For `Cc1oc(-c2ccccc2)cc1C(=O)NC1CCN(Cc2ccccc2)CC1`, the activity change, negative = inhibition was inconclusive: 20.9%. With `Cc1nn(CCC#N)c(C)c1Oc1ccccc1O` the activity change, negative = inhibition was inconclusive: 5.97%. In the case of `Nc1nonc1-c1nc2ccccc2n1CC(=O)Nc1ccccc1`, the “activity change, negative = inhibition” value is reported as inactive: -1.51%. For `CCN(CC)S(=O)(=O)c1ccc(C)c(NC(=S)Nc2cccc(S(=O)(=O)N3CCCCCC3)c2)c1`, the activity change, negative = inhibition was inconclusive: -20.6%. With `C#CCNC(=O)C1=C[C@H](c2ccccc2)[C@@H](CCCO)[C@H](OCC)O1` the activity change, negative = inhibition was inconclusive: 0.28%. With `CCOc1cc(C)c(S(=O)(=O)NC2CCCCC2)cc1C` the “activity change, negative = inhibition” value was inactive: 1.77%. In the case of `CCc1nc(CNC(=O)C2CCC(=O)N(CCc3cccc(F)c3)C2)no1` (stereo not drawn), the “activity change, negative = inhibition” value is reported as inactive: 4.84%. For `COc1ccc(C(=O)N2CCN(c3ccc(NC(=O)c4cccnc4)cc3)CC2)cc1`, the activity change, negative = inhibition was inconclusive: -8.57%. With `O=c1c2c(-c3cccs3)csc2ncn1-n1cccc1` the Potency was inconclusive: 12.6 µM [falling, single point]. In the case of `CCOC(=O)c1[nH]c(C)c(C(=O)OC)c1C`, the Potency is reported as inconclusive: 17.8 µM [falling, partial curve, poor fit]. For `CC(C)(C)C(=O)NCCN1C(=O)S/C(=C\c2ccc([N+](=O)[O-])cc2)C1=O`, the Potency was inconclusive: 18.4 µM [falling, single point]. For `Cc1ccccc1C(=O)Nc1ccc(C(=O)N/N=C/c2ccccn2)cc1`, the activity change, negative = inhibition was inconclusive: 1.69%. With `Cc1cccc(OCCNC(=O)c2cccc(Oc3ccc(C(F)(F)F)cc3[N+](=O)[O-])c2)c1` the Potency was inconclusive: 5.17 µM [falling, partial curve, poor fit]. With `CCCCCCCCn1c2c(c(=N)c3ccccc31)CCC2` the “activity change, negative = inhibition” value was inactive: 12.2%. With `Cc1ccc(Cl)cc1N1CCN(C(=O)CCS(=O)(=O)c2cccc3nonc23)CC1` the Potency was inconclusive: 23.1 µM [falling, partial curve, poor fit].
